# Counter-ions that a name gives are not always drawn. The list shows a part of the results. Most entries show no effect beyond the scatter of the controls.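 A single-replicate pilot screen of approved drugs and clinical or known-target compounds measured melting temperature via differential scanning fluorimetry. Top stabilizing hits raised the melting point by 2 °C or more; negative shifts indicate destabilization.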
# Tested on: SARS-CoV-2 main protease (Mpro, nsp5)
# Test: thermal shift ΔTm of Mpro relative to plate average Tm; higher = stronger thermal stabilization of Mpro (binding)
# Conditions: 10 µM; protein concentration 1 µM
row,Compound,thermal shift ΔTm of Mpro
1,CN(C)S(=O)(=O)c1ccc2c(c1)/C(=C/c1cc3c([nH]1)CCCC3)C(=O)N2,0.0681 °C
2,Clc1cccc(Cl)c1NC1=NCCN1 [Clonidine HCl],-0.0379 °C
3,C[C@]12C=CC(=O)N[C@@H]1CC[C@@H]1[C@@H]2CC[C@]2(C)[C@@H](C(=O)Nc3cc(C(F)(F)F)ccc3C(F)(F)F)CC[C@@H]12 [Dutasteride],-0.144 °C
4,O=C1[C@H]2CCCC[C@H]2C(=O)N1CCCCN1CCN(c2nsc3ccccc23)CC1 [Perospirone],-0.118 °C
5,CN(C)[C@@H]1C(=O)C(C(N)=O)=C(O)[C@@]2(O)C(=O)C3=C(O)c4c(O)cccc4[C@@](C)(O)[C@H]3C[C@@H]12 [Tetracycline HCl],-0.0728 °C
6,CN(C)[C@@H]1C(=O)C(C(N)=O)=C(O)[C@@]2(O)C(=O)C3=C(O)c4c(O)cccc4[C@@](C)(O)[C@H]3C[C@@H]12 [Tetracycline],-0.0392 °C
7,CCCCCCCCCCCCCCCC(=O)OC[C@H](O)[C@H]1OC(=O)C(O)=C1O [L-Ascorbyl 6-palmitate],0.169 °C
8,Nc1nc2c(ncn2COC(CO)CO)c(=O)[nH]1 [Ganciclovir],0.0289 °C
9,CC(NC(C)(C)C)C(=O)c1cccc(Cl)c1 (stereo not drawn) [Amfebutamone HCl],-0.0029 °C
10,Cc1csc(-c2nnc(Nc3ccc(Oc4ncccc4-c4ccnc(N)n4)cc3)c3ccccc23)c1,0.0142 °C
11,NCCCCCC(=O)O [(6-)ε-Aminocaproic acid],-0.202 °C
12,c1ccc2c(CCNc3ccc(Nc4ccncc4)cc3)c[nH]c2c1,-0.157 °C
13,NCc1cccnc1 [Picolamine],0.384 °C
14,COc1ccc2c(Oc3ccc(NC(=O)c4c(C)n(CC(C)(C)O)n(-c5ccccc5)c4=O)nc3)ccnc2c1,-0.166 °C
15,COc1c(C)cnc(Cn2cnc3c(Cl)nc(N)nc32)c1C,0.0972 °C
16,CC=CC(=O)N(CC)c1ccccc1C [Crotamiton],0.284 °C
17,CC(C)Oc1ccc(-c2cnc3c(-c4ccnc5ccccc45)cnn3c2)cc1,-0.301 °C
18,Cc1nc2c([nH]1)-c1ccccc1N(C(=O)c1ccc(NC(=O)c3ccccc3-c3ccccc3)cc1)CC2 [Conivaptan HCl],0.217 °C
19,CNCCc1ccccn1 [Betahistine],0.099 °C
20,CNCCc1ccccn1 [Betahistine 2HCl],0.15 °C
21,CNCCc1ccccn1 [Betahistine mesylate],0.305 °C
22,CC1=C(C)C(=O)C(C(CCCCCC(=O)O)c2ccccc2)=C(C)C1=O (stereo not drawn) [Seratrodast],0.139 °C
23,COc1ccc(COc2ccc(CC#N)cc2)cc1,-0.0133 °C
24,C[C@H]1CO[C@@H]2Cn3cc(C(=O)NCc4ccc(F)cc4F)c(=O)c(O)c3C(=O)N12,-0.0673 °C
25,O=C(c1c(F)ccc(NS(=O)(=O)N2CC[C@@H](F)C2)c1F)c1c[nH]c2ncc(-c3cnc(C4CC4)nc3)cc12,-0.0224 °C
26,OC(c1cc(-c2ccc(Cl)cc2)nc2ccccc12)C1CCCCN1 (stereo not drawn) [Vacquinol-1],0.084 °C
27,Cc1nc2c(-c3cnc(N)nc3)nc(N3CCOCC3)nc2n1C(C)C,-0.153 °C

# Copied from the list:
# O=C(c1c(F)ccc(NS(=O)(=O)N2CC[C@@H](F)C2)c1F)c1c[nH]c2ncc(-c3cnc(C4CC4)nc3)cc12 | thermal shift ΔTm of Mpro: -0.0224 °C
# CNCCc1ccccn1 [Betahistine mesylate] | thermal shift ΔTm of Mpro: 0.305 °C

# Pulled one by one from the list above (2):
row,Compound,thermal shift ΔTm of Mpro
9,CC(NC(C)(C)C)C(=O)c1cccc(Cl)c1 (stereo not drawn) [Amfebutamone HCl],-0.0029 °C
15,COc1c(C)cnc(Cn2cnc3c(Cl)nc(N)nc32)c1C,0.0972 °C

# The results go on:

row,Compound,thermal shift ΔTm of Mpro
1,Nc1nccc(Oc2ccc(NC(=O)c3c[nH]cc(-c4ccc(F)cc4)c3=O)cc2F)c1Cl,-0.0122 °C
2,C[C@H]1[C@H](C)CC[C@]2(C(=O)O)CC[C@]3(C)C(=CC[C@@H]4[C@@]5(C)CC[C@H](O)C(C)(C)[C@@H]5CC[C@]43C)[C@H]12 [Ursolic Acid],0.452 °C
3,O=C(c1ccc(F)cc1)C1CCN(CCn2c(=O)[nH]c3ccccc3c2=O)CC1 [Ketanserin],0.274 °C
4,Oc1ccc2c(c1)OC[C@H]1c3cc4c(cc3O[C@@H]21)OCO4 [Maackiain],0.0119 °C
5,NC(=O)Nc1cc(-c2cccc(F)c2)sc1C(=O)N[C@H]1CCCNC1,-0.138 °C
6,COCCNC(=O)Nc1ccc2nc(-c3cccs3)c(-c3cccs3)nc2c1 [Ac-CoA Synthase Inhibitor1],-0.213 °C
7,Cc1[nH]cnc1CN1CCc2c(c3ccccc3n2C)C1=O [Alosetron hydrochloride],0.384 °C
8,O=S(=O)(c1cccc2c(O)nccc12)N1CCCNCC1 [Hydroxyfasudil Hydrochloride],-0.0858 °C
9,O=C(O)CCc1ccc(NCc2cccc(Oc3ccccc3)c2)cc1,-0.0918 °C
10,CC(C)(C)c1cc(C=C(C#N)C#N)cc(Br)c1O,0.765 °C
11,COc1cc(C(C)C)c(Oc2cnc(N)nc2N)cc1I,0.515 °C
12,COC1=C(C)C(=O)O/C1=C1\O[C@@H]2CCCN3[C@@H](CC[C@H]3[C@@H]3C[C@H](C)C(=O)O3)[C@H]2[C@@H]1C [Protostemonine],-0.0798 °C
13,CC(=O)O[C@H]1CC[C@H]2[C@@H]3CCC4=CC(=O)CCC4=C3C=C[C@]12C [Trenbolone acetate],0.0185 °C
14,NCC(CC(=O)O)c1ccc(Cl)cc1 (stereo not drawn) [Baclofen],0.0856 °C
15,CCS(=O)(=O)N1CC(CC#N)(n2cc(-c3ncnc4[nH]ccc34)cn2)C1,-0.13 °C
16,CCS(=O)(=O)N1CC(CC#N)(n2cc(-c3ncnc4[nH]ccc34)cn2)C1 [Baricitinib Phosphate],0.387 °C
17,CN(C)CCOC(c1ccccc1)c1ccccc1.Cn1c(=O)c2[nH]c(Cl)nc2n(C)c1=O [Dimenhydrinate],0.0934 °C
18,CCOC(=O)CC(SP(=S)(OC)OC)C(=O)OCC (stereo not drawn) [Malathion],0.0513 °C
19,Clc1ccc2c(c1)CCc1cccnc1C2=C1CCNCC1 [Desloratadine],0.0946 °C
20,CC(C)[C@]12O[C@H]1[C@@H]1O[C@]13[C@]1(O[C@H]1C[C@H]1C4=C(CC[C@@]13C)C(=O)OC4)[C@@H]2O [Triptolide (PG490)],0.0143 °C
21,O=C1NCC2(CCN(CCc3ccccc3)CC2)O1 [Fenspiride HCl],-0.114 °C
22,Cc1cc(C)c(S(=O)(=O)N(CCc2cccc(Br)c2)Cc2ccc(-c3cccc(S(C)(=O)=O)c3)cc2)c(C)c1,-0.16 °C
23,Nc1nc(NCCNc2ncc(-n3ccnc3)c(-c3ccc(Cl)cc3Cl)n2)ccc1[N+](=O)[O-],-0.0089 °C
24,NC(=O)c1cc([N+](=O)[O-])cc([N+](=O)[O-])c1 [Nitromide],0.265 °C
25,CC1OC2(CS1)CN1CCC2CC1 (stereo not drawn) [Cevimeline hydrochloride hemihydrate],0.134 °C
26,CCOc1nc2cccc(C(=O)O)c2n1Cc1ccc(-c2ccccc2-c2nnn[nH]2)cc1 [Candesartan],-0.121 °C

# — the supplement of paper PMC8166895
